Measurements taken from publication PMC5397419.
For at least one entry, the source does not settle the construct or the ends of the probe. Protein sequences can lack the tags named with them.

Target: T1, DnaA wild-type (Escherichia coli) (UniProt P03004)
T1 sequence: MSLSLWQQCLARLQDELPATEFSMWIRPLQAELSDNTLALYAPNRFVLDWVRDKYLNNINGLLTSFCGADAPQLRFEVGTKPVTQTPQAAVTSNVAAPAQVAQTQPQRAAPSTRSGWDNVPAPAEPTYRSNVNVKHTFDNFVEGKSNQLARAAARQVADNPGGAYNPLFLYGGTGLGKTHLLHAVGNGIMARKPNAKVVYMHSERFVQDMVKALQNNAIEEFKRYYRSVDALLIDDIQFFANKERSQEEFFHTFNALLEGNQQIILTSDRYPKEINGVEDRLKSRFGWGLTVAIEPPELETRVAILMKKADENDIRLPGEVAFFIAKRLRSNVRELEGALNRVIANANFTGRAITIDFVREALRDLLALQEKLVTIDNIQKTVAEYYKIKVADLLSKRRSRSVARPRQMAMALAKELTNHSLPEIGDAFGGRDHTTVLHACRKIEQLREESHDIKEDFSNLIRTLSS
Experiment: EMSA
Conditions: 2 mM ATP, 5 mM Mg acetate, EMSA oriC/PdnaA: 20 mM HEPES-KOH pH 8.0, 5 mM Mg acetate, 1 mM EDTA, 4 mM DTT, 0.2% Triton X-100, 5% glycerol, 0.5 mg/ml BSA, 20 C, recombinant protein, label: 5' FAM, probe letters rebuilt from the primers and the genome

Row | Sequence | binding result (0-2.4 pmol DnaA) | binding result
1 | CCCGGGCCGTGGATTCTACTCAACTTTGTCGGCTTGAGAAAGACCCGGGATCCTGGGTATTAAAAAGAAGATCTATTTATTTAGAGATCTGTTCTATTGTGATCTCTTATTAGGATCGCACTGCCCTGTGGATAACAAGGATCCGGCTTTTAAGATCAACAACCTGGAAAGGATCATTAACTGTGAATGATCGGTGATCCTGGACCGTATAAGCTGGGATCAGAATGAGGGGTTATACACAACTCAAAAACTGAACAACCGTTGTTCCTTGGATAACTACCGGTTGATCCAAGCTTCCTGACAGAGTTATCCACAGTAGATCGCACGATCTGTATACTTATTTGAGTAAATTAATCCACGATCCCAGCCATTCTTCTGCCGGATCTTCCGGAATGTCGTGATCAAGAATGTTGATCTTCAGTGTTTCGCCTGTCTGTTTTGCACCGGAATCTTTGAGTTCTGCCTCGAG (double strand) [oriC 469 bp (EMSA)] | binds | –
2 | TGGTCATTAAATTTTCCAATATGCGGCGTAAATCGTGCCCGCCTCGCGGCAGGATCGTTTACACTTAGCGAGTTCTGGAAAGTCCTGTGGATAAATCGGGAAAATCTGTGAGAAACAGAAGATCTCTTGCGCAGTTTAGGCTATGATCCGCGGTCCCGATCGTTTTGCAGGATCTTGATCGGGCATATAACCGCAGACAGCGGTTCGTGCGTCACCCTCAAGCAGGGTCTTTTCGACGTACGTCAACAATCATGAATGTTTCAGCCTTAGTCATTATCGACTTTTGTTCGAGTGGAGTCCGCC (double strand) [dnaA promoter (PdnaA)] | – | binds
